According to US9604931B2, “Nuclear receptor binding agents” (GTx, Inc., priority 2007, dated 2017):

System: Rat Aortic Smooth Muscle Cells (RASMC)
Assay: RASMC cell proliferation assay (WST-1)
Type: cell-based
Conditions: inhibitory effect sigmoid Emax model, read-out: EC50 for inhibition of RASMC proliferation
Procedure: EC50 values were calculated using WinNonLin 5.0.1 using the inhibitory effect sigmoid Emax model.

## CC/C(=C(\c1ccccc1)c1ccc(OCCN(C)C)cc1)c1ccccc1 [Tamoxifen, reference compound]
  EC50: 4.03 µM
